Data as given in the supplement of paper PMC8728848.
Some of the results follow.

Legend:
Assay in all cases: glycan array binding signal (z-score within array); higher = stronger binding
Details in all cases: glycan notation: IUPAC condensed, linker removed
GlcNAc(b1-3)Gal(b1-4)Glc = target: GlcNAc(b1-3)Gal(b1-4)Glc
In short: (§1)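 Arrays were curated from the Consortium for Functional Glycomics database, 3228 in total, and kept only where the protein sequence was available. Binding is expressed as a within-array Z-score. This score was averaged across arrays of the same protein sequence at different concentrations or buffers and across linkers, and negative values can be read as non-binding.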

[1] = target: GlcNAc(b1-3)Gal(b1-4)GlcNAc
In short: as §1

[2] = target: GlcNAc(b1-3)Gal(b1-4)GlcNAc(b1-2)Man(a1-3)[GlcNAc(b1-3)Gal(b1-4)GlcNAc(b1-2)Man(a1-6)]Man(b1-4)GlcNAc(b1-4)GlcNAc
In short: as §1

[3] = target: GlcNAc(b1-3)Gal(b1-4)GlcNAc(b1-2)Man(a1-3)[GlcNAc(b1-3)Gal(b1-4)GlcNAc(b1-2)Man(a1-6)]Man(b1-4)GlcNAc(b1-4)[Fuc(a1-6)]GlcNAc
In short: as §1

[4] = target: GlcNAc(b1-3)Gal(b1-4)GlcNAc(b1-2)[GlcNAc(b1-3)Gal(b1-4)GlcNAc(b1-6)]Man(a1-6)[GlcNAc(b1-3)Gal(b1-4)GlcNAc(b1-2)Man(a1-3)]Man(b1-4)GlcNAc(b1-4)GlcNAc
In short: as §1

[5] = target: GlcNAc(b1-3)Gal(b1-4)GlcNAc(b1-3)Gal(b1-4)GlcNAc
In short: as §1

[6] = target: GlcNAc(b1-3)Gal(b1-4)GlcNAc(b1-3)Gal(b1-4)GlcNAc(b1-2)Man(a1-3)[GlcNAc(b1-3)Gal(b1-4)GlcNAc(b1-3)Gal(b1-4)GlcNAc(b1-2)Man(a1-6)]Man(b1-4)GlcNAc(b1-4)GlcNAc
In short: as §1

[7] = target: GlcNAc(b1-3)Gal(b1-4)GlcNAc(b1-3)Gal(b1-4)GlcNAc(b1-2)Man(a1-3)[GlcNAc(b1-3)Gal(b1-4)GlcNAc(b1-3)Gal(b1-4)GlcNAc(b1-2)Man(a1-6)]Man(b1-4)GlcNAc(b1-4)[Fuc(a1-6)]GlcNAc
In short: as §1

[8] = target: GlcNAc(b1-3)Gal(b1-4)GlcNAc(b1-3)Gal(b1-4)GlcNAc(b1-2)[GlcNAc(b1-3)Gal(b1-4)GlcNAc(b1-3)Gal(b1-4)GlcNAc(b1-6)]Man(a1-6)[GlcNAc(b1-3)Gal(b1-4)GlcNAc(b1-3)Gal(b1-4)GlcNAc(b1-2)Man(a1-3)]Man(b1-4)GlcNAc(b1-4)[Fuc(a1-6)]GlcNAc
In short: as §1

[9] = target: GlcNAc(b1-3)Gal(b1-4)GlcNAc(b1-3)Gal(b1-4)GlcNAc(b1-3)Gal(b1-4)GlcNAc(b1-2)Man(a1-3)[GlcNAc(b1-3)Gal(b1-4)GlcNAc(b1-3)Gal(b1-4)GlcNAc(b1-3)Gal(b1-4)GlcNAc(b1-2)Man(a1-6)]Man(b1-4)GlcNAc(b1-4)GlcNAc
In short: as §1

[10] = target: GlcNAc(b1-3)Gal(b1-4)GlcNAc(b1-3)Gal(b1-4)GlcNAc(b1-3)Gal(b1-4)GlcNAc(b1-2)Man(a1-3)[GlcNAc(b1-3)Gal(b1-4)GlcNAc(b1-3)Gal(b1-4)GlcNAc(b1-3)Gal(b1-4)GlcNAc(b1-2)Man(a1-6)]Man(b1-4)GlcNAc(b1-4)[Fuc(a1-6)]GlcNAc
In short: as §1

[11] = target: GlcNAc(b1-3)Gal(b1-4)GlcNAc(b1-3)Gal(b1-4)GlcNAc(b1-3)Gal(b1-4)GlcNAc(b1-2)[GlcNAc(b1-3)Gal(b1-4)GlcNAc(b1-3)Gal(b1-4)GlcNAc(b1-3)Gal(b1-4)GlcNAc(b1-6)]Man(a1-6)[GlcNAc(b1-3)Gal(b1-4)GlcNAc(b1-3)Gal(b1-4)GlcNAc(b1-3)Gal(b1-4)GlcNAc(b1-2)Man(a1-3)]Man(b1-4)GlcNAc(b1-4)[Fuc(a1-6)]GlcNAc
In short: as §1

[12] = target: GlcNAc(b1-3)Gal(b1-4)GlcNAc(b1-3)Gal(b1-4)GlcNAc(b1-3)Gal(b1-4)GlcNAc(b1-3)Gal(b1-4)GlcNAc(b1-2)Man(a1-3)[GlcNAc(b1-3)Gal(b1-4)GlcNAc(b1-3)Gal(b1-4)GlcNAc(b1-3)Gal(b1-4)GlcNAc(b1-3)Gal(b1-4)GlcNAc(b1-2)Man(a1-6)]Man(b1-4)GlcNAc(b1-4)GlcNAc
In short: as §1

[13] = target: GlcNAc(b1-3)Gal(b1-4)GlcNAc(b1-3)Gal(b1-4)GlcNAc(b1-3)Gal(b1-4)GlcNAc(b1-3)Gal(b1-4)GlcNAc(b1-2)Man(a1-3)[GlcNAc(b1-3)Gal(b1-4)GlcNAc(b1-3)Gal(b1-4)GlcNAc(b1-3)Gal(b1-4)GlcNAc(b1-3)Gal(b1-4)GlcNAc(b1-2)Man(a1-6)]Man(b1-4)GlcNAc(b1-4)[Fuc(a1-6)]GlcNAc
In short: as §1

[14] = target: GlcNAc(b1-3)Gal(b1-4)GlcNAc(b1-3)Gal(b1-4)GlcNAc(b1-3)Gal(b1-4)GlcNAc(b1-3)Gal(b1-4)GlcNAc(b1-2)[GlcNAc(b1-3)Gal(b1-4)GlcNAc(b1-3)Gal(b1-4)GlcNAc(b1-3)Gal(b1-4)GlcNAc(b1-3)Gal(b1-4)GlcNAc(b1-6)]Man(a1-6)[GlcNAc(b1-3)Gal(b1-4)GlcNAc(b1-3)Gal(b1-4)GlcNAc(b1-3)Gal(b1-4)GlcNAc(b1-3)Gal(b1-4)GlcNAc(b1-2)Man(a1-3)]Man(b1-4)GlcNAc(b1-4)[Fuc(a1-6)]GlcNAc
In short: as §1

[15] = target: GlcNAc(b1-3)Gal(b1-4)GlcNAc(b1-3)Gal(b1-4)GlcNAc(b1-3)GalNAc
In short: as §1

[16] = target: GlcNAc(b1-3)Gal(b1-4)GlcNAc(b1-3)GalNAc
In short: as §1

[17] = target: GlcNAc(b1-3)Gal(b1-4)GlcNAc(b1-3)[GlcNAc(b1-3)Gal(b1-4)GlcNAc(b1-3)]GalNAc
In short: as §1

[18] = target: GlcNAc(b1-3)Gal(b1-4)GlcNAc(b1-6)[Gal(b1-3)]GalNAc
In short: as §1

[19] = target: GlcNAc(b1-3)Gal(b1-4)GlcNAc(b1-6)[GlcNAc(b1-3)Gal(b1-3)]GalNAc
In short: as §1

[20] = target: GlcNAc(b1-3)Gal(b1-4)GlcNAc(b1-6)[GlcNAc(b1-3)]Gal(b1-4)GlcNAc
In short: as §1

GlcNAc(b1-3)GalNAc = target: GlcNAc(b1-3)GalNAc
In short: as §1

GlcNAc(b1-3)Man = target: GlcNAc(b1-3)Man
In short: as §1

[21] = target: GlcNAc(b1-3)[GlcNAc(b1-4)][GlcNAc(b1-6)]GlcNAc
In short: as §1

[22] = target: GlcNAc(b1-3)[GlcNAc(b1-6)]Gal(b1-4)GlcNAc
In short: as §1

[23] = target: GlcNAc(b1-3)[GlcNAc(b1-6)]GalNAc
In short: as §1

[24] = target: GlcNAc(b1-4)Gal(b1-4)GlcNAc
In short: as §1

GlcNAc(b1-4)GlcNAc = target: GlcNAc(b1-4)GlcNAc
In short: as §1

[25] = target: GlcNAc(b1-4)GlcNAc(b1-4)GlcNAc
In short: as §1

[26] = target: GlcNAc(b1-4)GlcNAc(b1-4)GlcNAc(b1-4)GlcNAc(b1-4)GlcNAc
In short: as §1

[27] = target: GlcNAc(b1-4)GlcNAc(b1-4)GlcNAc(b1-4)GlcNAc(b1-4)GlcNAc(b1-4)GlcNAc
In short: as §1

[28] = target: GlcNAc(b1-4)[GlcNAc(b1-6)]GalNAc
In short: as §1

[29] = target: GlcNAc(b1-6)Gal(b1-4)GlcNAc
In short: as §1

GlcNAc(b1-6)GalNAc = target: GlcNAc(b1-6)GalNAc
In short: as §1

[30] = target: GlcNAc6S(b1-3)Gal(b1-4)GlcNAc
In short: as §1

Kdn(a2-3)Gal(b1-3)GalNAc = target: Kdn(a2-3)Gal(b1-3)GalNAc
In short: as §1

Kdn(a2-3)Gal(b1-3)GlcNAc = target: Kdn(a2-3)Gal(b1-3)GlcNAc
In short: as §1

B1: SJCP1531 (Schistosoma japonicum) (protein)
chain: MFKVRIINLVNISTVLLLINLLQTKSQVNVEQLVTVLEVNIKAQLKNKTTEVLVEWNPLYQDNSMPEYRKLLDETCKLFLPFVNEKVPPSTYGGECTNANFSEAPQDGSYSRVNAELRLIYKYSDNPQIQTDRLQDDLNDREEFITSESSFVAYNPKFTVKIEKLFIPISESQTTPPPTTAKNDASKKDDDDNGGEDSKAPIDTFAMTASGNKGKKDDDDNGGEDSKAPIDTFAMTASGSKDERSTWTIIGIITLVVLIFVVIGGGITVFVKRC
glycan array binding signal (z-score) (GlcNAc(b1-3)Gal(b1-4)Glc): 0.828 | glycan array binding signal (z-score) [1]: 0.345 | glycan array binding signal (z-score) [2]: 0.043 | glycan array binding signal (z-score) [3]: -0.143 | glycan array binding signal (z-score) [4]: 0.31 | glycan array binding signal (z-score) [5]: -0.766 | glycan array binding signal (z-score) [6]: 1.81 | glycan array binding signal (z-score) [7]: 1.04 | glycan array binding signal (z-score) [8]: 1.72 | glycan array binding signal (z-score) [9]: -0.047 | glycan array binding signal (z-score) [10]: 0.944 | glycan array binding signal (z-score) [11]: 1.84 | glycan array binding signal (z-score) [12]: 0.067 | glycan array binding signal (z-score) [13]: 1.01 | glycan array binding signal (z-score) [14]: 1.4 | glycan array binding signal (z-score) [15]: -0.547 | glycan array binding signal (z-score) [16]: -0.655 | glycan array binding signal (z-score) [17]: -0.117 | glycan array binding signal (z-score) [18]: -0.637 | glycan array binding signal (z-score) [19]: -1.05 | glycan array binding signal (z-score) [20]: -1.27 | glycan array binding signal (z-score) (GlcNAc(b1-3)GalNAc): -1.42 | glycan array binding signal (z-score) (GlcNAc(b1-3)Man): 1.01 | glycan array binding signal (z-score) [21]: -0.372 | glycan array binding signal (z-score) [22]: 0.523 | glycan array binding signal (z-score) [23]: 0.239 | glycan array binding signal (z-score) [24]: -0.844 | glycan array binding signal (z-score) (GlcNAc(b1-4)GlcNAc): -0.124 | glycan array binding signal (z-score) [25]: -0.584 | glycan array binding signal (z-score) [26]: -0.099 | glycan array binding signal (z-score) [27]: -2.45 | glycan array binding signal (z-score) [28]: -0.845 | glycan array binding signal (z-score) [29]: -1.5 | glycan array binding signal (z-score) (GlcNAc(b1-6)GalNAc): -0.143 | glycan array binding signal (z-score) [30]: -0.221 | glycan array binding signal (z-score) (Kdn(a2-3)Gal(b1-3)GalNAc): -0.79 | glycan array binding signal (z-score) (Kdn(a2-3)Gal(b1-3)GlcNAc): 0.26
